Measurements as given in PubChem BioAssay AID1347076 (National Center for Advancing Translational Sciences (NCATS), 2019).
About 13,000 (3.2%) of roughly 400,000 compounds were called active. Inconclusive means that the source gave no clear call. Such entries were picked first, then a sample of the others. The call rests on the fitted dose curve; in most records, active means well fitted cell-killing curve with a large enough effect; inconclusive means small, poorly fitted or top-dose-only effect, or effect the other way; inactive means flat fitted curve, though single readings scatter. Potencies beside an inconclusive call are fits to weak or partial responses and may not hold up.

Assay: qHTS assay for MDR1-selective chemotherapeutics: Primary screen using the drug-selected MDR subline cells KB-V1; further: nearly all actives have a fitted effect of over 60% in size
Conditions: KB-V1 MDR cells viability, CellTiter-Glo, 72 h; activity change, negative = cytotoxicity: at 46.1 µM (top of the series)
Summary of the method: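 Potencies derive from concentration-effect curves fitted to normalized luminescence (CellTiter-Glo) of KB-V1 cells treated for 72 h at 37 degrees C in phenol-red-free DMEM containing 10% FBS.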
On the % scale 0 is the no-effect control and ±100 the full control effect; potency means the concentration at half of the fitted maximal effect.

| SMILES | activity change, negative = cytotoxicity | Potency |
| --- | --- | --- |
| COc1cc(C(=O)n2nc(-c3ccco3)nc2NCc2ccc(Cl)cc2)cc(OC)c1OC | inactive: 4.74% |  |
| COc1ccc(-c2cc(NC=O)c3ncc(-c4cccc(C(F)(F)F)c4)n3c2)cc1OC |  | inconclusive: 29.1 µM [cytotoxic, single point] |
| Cc1c(NC(=O)c2ccc(N3CCCC3)c([N+](=O)[O-])c2)cccc1-c1nc2ccccc2s1 |  | inconclusive: 8.2 µM [cytotoxic, partial curve] |
| CN(CC(=O)Nc1ccc(F)cc1)C(=O)c1ccncc1 |  | inconclusive: 32.6 µM [rising, single point] |
| C[C@@H]1CN([C@@H](C)CO)C(=O)c2cc(C#CC(C)(C)O)cnc2O[C@@H]1CN(C)C(=O)c1ccccc1F | inactive: -4.34% |  |
| COc1ccc(-c2cc3ccccc3c(=O)o2)cc1 |  | inconclusive: 16.4 µM [cytotoxic, partial curve] |
| COc1ccc(NC(=O)c2c(C)oc3ccc(O)c(CN4CCCC4)c23)cc1Cl | inactive: 17.6% |  |
| COc1cc2c(cc1O)CCN(C(=O)c1ccco1)C2C (stereo not given) |  | inconclusive: 16.4 µM [cytotoxic, partial curve, poor fit] |
| NC(=O)c1cc2ccccc2o/c1=N/NC(=O)c1cccc(F)c1 |  | inconclusive: 3.26 µM [cytotoxic, partial curve, poor fit] |
| CCn1nc(C)cc1C(=O)Sc1ccc(Cl)cc1Cl |  | inconclusive: 7.31 µM [rising, partial curve, poor fit] |
| CC(=O)/C(=N\Nc1ccc(C)cc1)N1CCOCC1 |  | inconclusive: 29.1 µM [cytotoxic, partial curve, poor fit] |
| CCn1c(COc2ccc(Cl)cc2)nnc1SC1CCc2ccccc2C1=O (stereo not given) |  | inconclusive: 18.4 µM [cytotoxic, partial curve, poor fit] |
| O=C(c1ccco1)N1CCN(c2ncnc3c2[nH]c2ccc(Br)cc23)CC1 |  | inconclusive: 29.1 µM [cytotoxic, single point] |
| O=C(N/N=C/C=C/c1ccc(Br)cc1)C(O)c1ccccc1 (stereo not given) |  | inconclusive: 29.1 µM [rising, single point] |
| CCC12CN3CC(C)(CN(C1)C3c1c[nH]c3ccccc13)C2=O (stereo not given) | inactive: -14.3% |  |
| COc1cc(C(=O)OCC(=O)N2c3ccccc3NC(=O)C2(C)C)ccc1OCC(C)C |  | active: 20.6 µM |
| Cc1cc(NCC2CCCO2)n2c(nc3ccccc32)c1C#N (stereo not given) | inactive: -26.2% |  |
| O=[N+]([O-])c1cc(/C=N/N2CCCCC2)ccc1Cl | inactive: 29.5% |  |
| Cn1c(C(=O)O)c(S(=O)(=O)c2ccc(Cl)cc2)c2ccccc21 |  | inconclusive: 3.26 µM [rising, full curve, poor fit] |
| Cc1cccc(NS(=O)(=O)c2cc3c4c(c2)CCN4C(=O)CC3)c1C |  | inconclusive: 16.4 µM [cytotoxic, single point] |
| CSCC[C@H](NC(=O)OC(C)(C)C)c1nnc(SCC(=O)N(C)C)o1 | inactive: 13.5% |  |
| CCN(CC)S(=O)(=O)c1ccc(C)c(NC(=O)CSc2nnnn2C)c1 |  | inconclusive: 18.4 µM [cytotoxic, partial curve] |
| Cc1cc(=O)oc2c(C)c(OCC(=O)N3CCN(c4ccccc4)CC3)ccc12 |  | inconclusive: 6.51 µM [cytotoxic, partial curve] |
| Cc1cc(C)cc(N(CC(=O)NCCSc2ccccn2)S(=O)(=O)c2ccccc2)c1 |  | inconclusive: 11.6 µM [cytotoxic, partial curve] |

| SMILES | activity change, negative = cytotoxicity | Potency |
| --- | --- | --- |
| COc1ccc(C(=O)N(CCc2ccccc2)Cc2cccs2)c(OC)c1 |  | inconclusive: 29.1 µM [cytotoxic, single point] |
| O=C(Nc1ccc(F)cc1Cl)n1ncc2cc(Cl)ccc21 |  | inconclusive: 9.2 µM [rising, partial curve, poor fit] |
| CCCCC[C@H]1CN(Cc2ccc(OC)cc2)C(=O)[C@@H]1CC(=O)NCc1ccccc1 |  | inconclusive: 6.51 µM [cytotoxic, partial curve] |
| CC(=O)c1c(C)[nH]c(C(=O)Nc2nc(-c3ccc(-c4ccccc4)cc3)cs2)c1C |  | active: 20.6 µM |
| Cc1cc(F)cc(C)c1Cn1cnc2c(cnn2C(C)(C)C)c1=O | inactive: 11.4% |  |
| CCOC(=O)C(NC(C)=O)C(OC(C)=O)c1cccc(N(CCO)CCO)c1 (stereo not given) |  | inconclusive: 23.1 µM [rising, single point] |
| Fc1ccccc1OCCCn1ccnc1 |  | inconclusive: 32.6 µM [rising, single point] |
| O=C1CCN(CCc2ccccc2)CCN1[C@H](CSc1ccccc1)Cc1ccccc1 |  | inconclusive: 9.2 µM [cytotoxic, partial curve] |
| Cc1ccccc1N(CC(=O)NC1CCCCC1)C(=O)c1csnn1 |  | inconclusive: 23.1 µM [cytotoxic, partial curve] |
| Fc1ccc(-c2n[nH]c(=S)n2-c2ccc3c(c2)OCCO3)cc1 | inactive: 10.8% |  |
| CN1CC(c2ccccc2Cl)C2(COc3ccccc3C2=O)C12C(=O)Nc1ccccc12 (stereo not given) |  | inconclusive: 23.1 µM [cytotoxic, partial curve, poor fit] |
| CC(C)CN1C(=O)/C(=C/c2cccs2)NC1=S | inactive: -0.595% |  |
| Nc1nc(Nc2ccc(Cl)cc2)nc(NCc2ccco2)c1[N+](=O)[O-] |  | active: 16.4 µM |
| CC(C)(C)OC(=O)N1CCC[C@H]1C(=O)N1CCC[C@H]1C(=O)NCc1ccncc1 | inactive: 1.66% |  |
| CCn1c(CN2CCC(C)CC2)nc2cc(S(=O)(=O)N3CCCCC3)ccc21 |  | inconclusive: 16.4 µM [cytotoxic, partial curve] |
| CCCCCCCCOC(=O)c1c(CSC(=N)N)n(C)c2cc(Br)c(OC(C)=O)cc12 |  | inconclusive: 23.1 µM [cytotoxic, partial curve, poor fit] |
| CCC(C)c1ccccc1N1CC(C(=O)N(C)CC(=O)Nc2cccc(F)c2)CC1=O (stereo not given) | inactive: -9.42% |  |
| CCOC(=O)Cc1csc(NC(=O)Cn2c(=O)oc3ccccc32)n1 | inactive: -0.342% |  |
| C=C(C)COc1ccc(-c2ncnc(C(F)(F)F)c2-c2ccc(OC)cc2)c(O)c1 |  | inconclusive: 20.6 µM [cytotoxic, single point] |
| Nc1nc(-c2ccc(-n3nncc3-c3ccco3)cc2)cs1 | inactive: -13.7% |  |
| CN(CC(=O)Nc1cccc(F)c1)C(=O)c1cc(S(=O)(=O)N2CCN(c3ccccc3)CC2)ccc1Cl | inactive: -11.2% |  |
| CCS(=O)(=O)c1ncc(N(Cc2ccco2)Cc2sccc2C)c(C(=O)Nc2ccc(C)cc2C)n1 | inactive: 4.59% |  |
| Cc1ccsc1C(=O)OCC(=O)NC1CCS(=O)(=O)C1 (stereo not given) | inactive: 16.4% |  |
| CCCCNC(=O)C1CCN(c2nc(OC)nc(OC)n2)CC1 |  | active: 20.6 µM |

| SMILES | activity change, negative = cytotoxicity | Potency |
| --- | --- | --- |
| COc1ccc(C2/C=C\CN(C(=O)C3CCCC3)[C@H](Cc3ccccc3)C(=O)N2Cc2ccc(F)cc2)cc1 (stereo not given in full) |  | inconclusive: 14.6 µM [cytotoxic, partial curve, poor fit] |
| COc1ccc(/C(O)=C2/C(=O)C(=O)N(CCN(C)C)C2c2ccccc2)cc1Cl (stereo not given) |  | inconclusive: 9.2 µM [rising, partial curve] |
| Cc1cc(C)n(CC(=O)N2c3ccccc3Sc3ccccc32)n1 | inactive: -8.91% |  |
| COc1ccc2c(c1)cc1c(=O)n(CC(=O)NCc3ccco3)nc(C)n12 | inactive: 3.71% |  |
| COc1ccc(-c2nnc3ccc(SCC(=O)N4CCCCCC4)nn23)cc1OC | inactive: 11.5% |  |
| Cn1c2ccccc2c2c(C(=O)N3CCN(c4ccc(F)cc4)CC3)cn(C3CCCC3)c(=O)c21 |  | inconclusive: 18.4 µM [cytotoxic, single point] |
| CCNC(=O)C1(C)CCCN1C(=O)c1ccc(-c2ccccc2)cc1 (stereo not given) | inactive: 1.26% |  |
| COc1ccccc1NC(=O)Cc1nn(C)c(=O)c2ccccc12 |  | inconclusive: 20.6 µM [cytotoxic, partial curve, poor fit] |
| CCCCc1nn2c(=O)cc(COC(=O)c3cccc(OC)c3)nc2s1 | inconclusive: 41.6% |  |
| COc1ccc(/C=C2\CC/C(=C\c3ccc(OC)c(OC)c3)C2=O)cc1OC |  | inconclusive: 8.2 µM [cytotoxic, partial curve] |
| Cc1ccc(O)c(CP(=O)(c2ccccc2)c2ccccc2)c1 |  | inconclusive: 23.1 µM [cytotoxic, partial curve, poor fit] |
| COc1ccc(-c2cc(C(F)(F)F)nc(SCC(=O)NCc3ccc(OC)c(OC)c3)n2)cc1 | inactive: -12.1% |  |
| COc1cccc(C(=O)Nc2cccc(OCc3cc(=O)n4cc(C)ccc4n3)c2)c1 | inactive: -0.468% |  |
| O=C(CN1CCN(C(=O)c2ccc(-c3nc4ccccc4s3)o2)CC1)Nc1ccccc1Cl |  | inconclusive: 18.4 µM [cytotoxic, single point] |
| CC(C)=CCCC1(C)C=Cc2c(ccc3c2[nH]c2cc(O)c(C)cc23)O1 (stereo not given) |  | inconclusive: 20.6 µM [cytotoxic, single point] |
| CCCc1cc(-c2[nH]ncc2-c2ccc3c(c2)OCCCO3)c(O)cc1O |  | inconclusive: 20.6 µM [cytotoxic, single point] |
| CCOc1ccc(NC(=O)NCCCn2c(C)nc3cc(C)c(C)cc32)cc1 |  | active: 23.1 µM |
| CCOC(=O)c1ccc2ncc(C(=O)OCC)c(NCCN(C)C)c2c1 | inactive: -5.2% |  |
| CCOc1ccc(C(=O)NCc2ccc3c(c2)CCN3C(=O)c2ccccc2)cc1 |  | inconclusive: 29.1 µM [cytotoxic, single point] |
| Cc1ccc(C(=O)OCC(=O)N2C(C)CCCC2C)s1 (stereo not given) |  | inconclusive: 23.1 µM [cytotoxic, single point] |
| CC(C)(C)c1nnc(NC(=O)Cc2ccccc2[N+](=O)[O-])s1 |  | inconclusive: 18.4 µM [rising, single point] |
| CSc1ccc(Cn2c(C)c(C(=O)NCCC#N)sc2=O)cc1 |  | active: 14.6 µM |

Gathered by group, those above containing a tert-butyl group

| SMILES | activity change, negative = cytotoxicity | Potency |
| --- | --- | --- |
| CSCC[C@H](NC(=O)OC(C)(C)C)c1nnc(SCC(=O)N(C)C)o1 | inactive: 13.5% |  |
| Cc1cc(F)cc(C)c1Cn1cnc2c(cnn2C(C)(C)C)c1=O | inactive: 11.4% |  |
| CC(C)(C)OC(=O)N1CCC[C@H]1C(=O)N1CCC[C@H]1C(=O)NCc1ccncc1 | inactive: 1.66% |  |
| CC(C)(C)c1nnc(NC(=O)Cc2ccccc2[N+](=O)[O-])s1 |  | inconclusive: 18.4 µM [rising, single point] |
